# Reference: US20190315873A1 (AGOMAB THERAPEUTICS, published 2019)
# These are yes or no findings as the source states them, for the method shown. For some assays here: A result given as binding can be weak or reduced; the word gives no strength.
# Assays:
# human MET ECD [1] = molecular target: T1, human MET ECD (human, UniProt P08581 25-932); assay: ELISA on MET ECD
# T1 construct: range 1-932; recombinant ECD made by standard protein engineering; also called hMET; human MET extracellular domain
# mouse MET ECD [2] = molecular target: T2, mouse MET ECD (mouse, UniProt P16056 25-931); assay: ELISA on MET ECD
# T2 construct: range 1-931; recombinant ECD; also called mMET; mouse MET extracellular domain
# [3] = molecular target: llama-human chimeric MET ECD CH3; assay: ELISA on MET chimera
# [4] = molecular target: llama-human chimeric MET ECD CH5; assay: ELISA on MET chimera
# [5] = molecular target: llama-human chimeric MET ECD CH4; assay: ELISA on MET chimera
# [6] = molecular target: human-llama chimeric MET ECD CH6; assay: ELISA on MET ECD or chimera
# human MET ECD [7] = molecular target: T1, human MET ECD; assay: ELISA on MET ECD or chimera
# [8] = molecular target: llama-human chimeric MET ECD CH1; assay: ELISA on MET ECD or chimera
# [9] = molecular target: llama-human chimeric MET ECD CH2; assay: ELISA on MET ECD or chimera
# [10] = molecular target: human-llama chimeric MET ECD CH7; assay: ELISA on MET ECD or chimera
# llama MET ECD (llama) = assay: ELISA on llama MET ECD
# [11] = molecular target: human-llama chimeric MET ECD CH6; assay: ELISA on MET chimera
# [12] = molecular target: human-llama chimeric MET ECD CH7; assay: ELISA on MET chimera
# [13] = molecular target: llama-human chimeric MET ECD CH3; assay: ELISA on MET ECD or chimera
# [14] = molecular target: llama-human chimeric MET ECD CH5; assay: ELISA on MET ECD or chimera
# [15] = molecular target: llama-human chimeric MET ECD CH4; assay: ELISA on MET ECD or chimera
# human MET ECD [16] = molecular target: T1, human MET ECD; assay: ELISA on MET ECD (FIG. 29)
# mouse MET ECD [17] = molecular target: T2, mouse MET ECD; assay: ELISA on MET ECD (FIG. 29)
# human MET ECD [18] = molecular target: T1, human MET ECD; assay: ELISA: MET ECD immobilized (100 ng/well), mAb in human IgG1/lambda format in solution (0-40 nM), HRP anti-human Fc
# mouse MET ECD [19] = molecular target: T2, mouse MET ECD; assay: as above
binding (human MET ECD [1]),binding (mouse MET ECD [2]),binding [3],binding [4],binding [5],binding [6],binding (human MET ECD [7]),binding [8],binding [9],binding [10],binding (llama MET ECD (llama)),binding [11],binding [12],binding [13],binding [14],binding [15],binding (human MET ECD [16]),binding (mouse MET ECD [17]),binding (human MET ECD [18]),binding (mouse MET ECD [19]),Binder
binds,binds,no binding (tested: 0-20 nM),no binding (tested: 0-20 nM),no binding (tested: 0-20 nM),binds,binds,binds,binds,binds,no binding (tested: 0-20 nM),–,–,–,–,–,–,–,–,–,"72F8 llama-human chimeric mAb (human IgG1/lambda) (antibody, V domains shown) VH: ELQLVESGGGLVQPGGSLRLSCAASGFTFSNYVMSWVRQAPGKGLEWVSDTNSGGSTSYADSVKGRFTISRDNAKNTLYLQMNSLKPEDTALYYCARSFFYGMNYWGKGTQVTVSS VL: QSALTQPPSLSASPGSSVRLTCTLSSGNNIGSYDISWYQQKAGSPPRYLLNYYTDSRKHQDSGVPSRFSGSKDASANAGLLLISGLQPEDEADYYCSAYKSGSYRWVFGGGTHVTVLQ"
binds,binds,–,–,–,–,binds,binds,binds,–,no binding (tested: 0-20 nM),no binding (tested: 0-20 nM),no binding (tested: 0-20 nM),binds,binds,binds,binds,binds,binds,binds,"76H10 llama-human chimeric mAb (human IgG1/lambda) (antibody, V domains shown) VH: QLQLVESGGGLVQPGGSLRVSCTASGFTFNTYYMTWVRQAPGKGLEWVSDINSGGGTYYADSVKGRFTISRDNAKNTLYLQMNSLKPEDTALYYCVRVRIWPVGYDYWGQGTQVTVSS VL: QAVVTQEPSLSVSPGGTVTLTCGLSSGSVTTSNYPGWFQQTPGQAPRTLIYNTNNRHSGVPSRFSGSISGNKAALTITGAQPEDEADYYCSLYTGSYTTVFGGGTHLTVLQ"
